According to PMC11589570, “Critical assessment of LC3/GABARAP ligands used for degrader development and ligandability of LC3/GABARAP binding pockets” (Nature Communications, 2024):
Values joined by “and” are separate entries in the source; they are usually repeats but may differ in a detail not shown here. Equal values may be shown once. Read-outs that look alike come from different tables or passages of the source. This continues a long series; more values of the same kind are listed elsewhere.

The chains behind the UniProt entries cited, without tags or fusion partners. Residues count along the entry.
UniProt O95166, 1-116: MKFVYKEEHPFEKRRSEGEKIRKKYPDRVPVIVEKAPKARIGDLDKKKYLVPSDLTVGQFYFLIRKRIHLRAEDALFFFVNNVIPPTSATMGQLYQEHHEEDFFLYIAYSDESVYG

Experiments:
RPE1 cells = assay: Cell growth assay (IncuCyte confluence over 72 h); format: cell-based
Procedure: Cell growth assay: Cell confluence (phase) from RPE1 (hTERT RPE-1, ATCC CLR_4000) or U2OS (ATCC, HTB-96) cell lines were monitored over time with the IncuCyte S3 (Sartiorius, Germany) in 384-well plates in 50 ul DMEM media, supplemented with 10% Fetal Bovine Serum (FBS) 1% penicillin/Streptomycin and incubated 24 h before treatment. Experiment was performed as described in Cano-Franco et al.. 50 μl of media containing either 2× final concentration of indicated compounds in or control compounds (final conc.: 0.1% DMSO, 250 nM Torin1, 200 ng/mL Bafilomycin) were added and images were taken every two hours over 72 h. Cell confluence is represented as % of area covered by cells. Each data point represents the average ratio or confluence obtained from three individual wells of the plate.

U2OS cells = assay: Cell growth assay (IncuCyte confluence over 72 h); format: cell-based; set-up: key: % of well area covered by cells (confluence)
Procedure: Cell growth assay: Cell confluence (phase) from RPE1 (hTERT RPE-1, ATCC CLR_4000) or U2OS (ATCC, HTB-96) cell lines were monitored over time with the IncuCyte S3 (Sartiorius, Germany) in 384-well plates in 50 ul DMEM media, supplemented with 10% Fetal Bovine Serum (FBS) 1% penicillin/Streptomycin and incubated 24 h before treatment. Experiment was performed as described in Cano-Franco et al.. […] Cell confluence is represented as % of area covered by cells. Each data point represents the average ratio or confluence obtained from three individual wells of the plate.

GABARAP = GABARAP (Homo sapiens, UniProt O95166); format: binding; settings: GABARAP:TH152 molar ratio 1:2
LC3B = LC3B (Homo sapiens, UniProt Q9GZQ8); settings: LC3B:TH152 1:2

CO[C@@H]1[C@@H](OC(N)=O)[C@@H](O)[C@H](Oc2ccc3c(O)c(NC(=O)c4ccc(O)c(CC=C(C)C)c4)c(=O)oc3c2C)OC1(C)C [compound 12, Novobiocin]
RPE1 cell growth (RPE1 cells; 100 nM, 12 h): 38 and 20 and 23
RPE1 cell growth (RPE1 cells; 100 nM, 14 h): 41 and 22 and 25
RPE1 cell growth (RPE1 cells; 100 nM, 16 h): 43 and 25 and 26
RPE1 cell growth (RPE1 cells; 100 nM, 18 h): 48 and 25 and 28
RPE1 cell growth (RPE1 cells; 500 nM, 10 h): 25
RPE1 cell growth (RPE1 cells; 500 nM, 12 h): 44 and 23 and 27
RPE1 cell growth (RPE1 cells; 500 nM, 14 h): 45 and 24 and 29
RPE1 cell growth (RPE1 cells; 500 nM, 16 h): 47 and 26 and 30
RPE1 cell growth (RPE1 cells; 500 nM, 18 h): 51 and 27 and 32
RPE1 cell growth (RPE1 cells; 1 uM, 10 h): 35
RPE1 cell growth (RPE1 cells; 1 uM, 12 h): 29 and 38
RPE1 cell growth (RPE1 cells; 1 uM, 14 h): 31 and 40 and 29
RPE1 cell growth (RPE1 cells; 1 uM, 16 h): 32 and 42 and 33
RPE1 cell growth (RPE1 cells; 1 uM, 18 h): 32 and 46 and 33
RPE1 cell growth (RPE1 cells; 3 uM, 12 h): 41 and 28 and 35
RPE1 cell growth (RPE1 cells; 3 uM, 14 h): 44 and 26 and 37
RPE1 cell growth (RPE1 cells; 3 uM, 16 h): 46 and 30 and 39
RPE1 cell growth (RPE1 cells; 3 uM, 18 h): 49 and 30 and 41
RPE1 cell growth (RPE1 cells; 5 uM, 12 h): 41 and 28 and 33
RPE1 cell growth (RPE1 cells; 5 uM, 14 h): 43 and 28 and 36
RPE1 cell growth (RPE1 cells; 5 uM, 16 h): 43 and 31 and 38
RPE1 cell growth (RPE1 cells; 5 uM, 18 h): 47 and 32 and 39
RPE1 cell growth (RPE1 cells; 10 uM, 12 h): 35 and 30 and 28
RPE1 cell growth (RPE1 cells; 10 uM, 14 h): 37 and 32 and 29
RPE1 cell growth (RPE1 cells; 10 uM, 16 h): 40 and 34 and 30
RPE1 cell growth (RPE1 cells; 10 uM, 18 h): 41 and 33 and 31
U2OS cell growth (U2OS cells; 100 nM, time 12 h): 30.039 and 31.8169 and 25.957
U2OS cell growth (U2OS cells; 100 nM, time 14 h): 36.7184 and 35.7351 and 29.7044
U2OS cell growth (U2OS cells; 100 nM, time 16 h): 39.2889 and 37.9845 and 31.4528
U2OS cell growth (U2OS cells; 100 nM, time 18 h): 37.2011 and 35.9358 and 33.7024
U2OS cell growth (U2OS cells; 500 nM, time 12 h): 39.6018 and 39.3063 and 46.5513
U2OS cell growth (U2OS cells; 500 nM, time 14 h): 41.6345 and 42.6666 and 49.2704
U2OS cell growth (U2OS cells; 500 nM, time 16 h): 45.3907 and 47.9062 and 52.0609
U2OS cell growth (U2OS cells; 500 nM, time 18 h): 43.4852 and 49.3841 and 54.0055
U2OS cell growth (U2OS cells; 1 uM, time 12 h): 44.5254 and 40.9759
U2OS cell growth (U2OS cells; 1 uM, time 14 h): 46.2098 and 49.2616 and 53.9991
U2OS cell growth (U2OS cells; 1 uM, time 16 h): 49.3975 and 54.5674 and 61.7887
U2OS cell growth (U2OS cells; 1 uM, time 18 h): 51.145 and 49.7067 and 53.3117
U2OS cell growth (U2OS cells; 3 uM, time 14 h): 54.2995 and 61.1013 and 64.7775
U2OS cell growth (U2OS cells; 3 uM, time 16 h): 65.8831 and 67.2199 and 65.8756
U2OS cell growth (U2OS cells; 3 uM, time 18 h): 53.1738 and 59.7189 and 63.6078
U2OS cell growth (U2OS cells; 5 uM, time 12 h): 54.1011 and 52.9989 and 58.4408
U2OS cell growth (U2OS cells; 5 uM, time 14 h): 62.2169 and 55.4187 and 56.6119
U2OS cell growth (U2OS cells; 5 uM, time 16 h): 62.198 and 60.0966 and 65.9718
U2OS cell growth (U2OS cells; 5 uM, time 18 h): 63.919 and 64.0354 and 66.2673
U2OS cell growth (U2OS cells; 10 uM, time 12 h): 46.2464 and 34.4066 and 44.9751
U2OS cell growth (U2OS cells; 10 uM, time 14 h): 50.641 and 37.3573 and 48.3201
U2OS cell growth (U2OS cells; 10 uM, time 16 h): 53.2653 and 40.2477 and 51.4709
U2OS cell growth (U2OS cells; 10 uM, time 18 h): 55.6575 and 43.8694 and 53.8696

CCCCCCC(Sc1nc(Cl)cc(Nc2nc(-c3ccc(C(=O)O)cc3)cs2)n1)C(=O)O (stereo not drawn) [compound 21]
CSP (GABARAP; GABARAP residue A89): 0.029 ppm
CSP (GABARAP; GABARAP residue G92): 0.035 ppm
CSP (GABARAP; GABARAP residue I84): 0.034 ppm
CSP (GABARAP; GABARAP residue L94): 0.045 ppm
CSP (GABARAP; GABARAP residue M91): 0.054 ppm
CSP (GABARAP; GABARAP residue N82): 0.008 ppm
CSP (GABARAP; GABARAP residue P85, estimated): 0.025 ppm
CSP (GABARAP; GABARAP residue P86, estimated): 0.020 ppm
CSP (GABARAP; GABARAP residue Q93): 0.036 ppm
CSP (GABARAP; GABARAP residue S88): 0.030 ppm
CSP (GABARAP; GABARAP residue T87): 0.020 ppm
CSP (GABARAP; GABARAP residue T90): 0.046 ppm
CSP (GABARAP; GABARAP residue V4, estimated): 0.005 ppm
CSP (GABARAP; GABARAP residue V83): 0.010 ppm
CSP (GABARAP; GABARAP residue Y5, estimated): 0.005 ppm
CSP (GABARAP; GABARAP residue Y95): 0.030 ppm
CSP (LC3B; LC3B residue E04, estimated): 0.020 ppm
CSP (LC3B; LC3B residue F79): 0.026 ppm
CSP (LC3B; LC3B residue F80): 0.043 ppm
CSP (LC3B; LC3B residue G85): 0.340 ppm
CSP (LC3B; LC3B residue H86): 0.225 ppm
CSP (LC3B; LC3B residue I95): 0.218 ppm
CSP (LC3B; LC3B residue K05): 0.022 ppm
CSP (LC3B; LC3B residue L81): 0.196 ppm
CSP (LC3B; LC3B residue L82): 0.348 ppm
CSP (LC3B; LC3B residue M88): 0.096 ppm
CSP (LC3B; LC3B residue N84): 0.200 ppm
CSP (LC3B; LC3B residue P94, estimated): 0.260 ppm
CSP (LC3B; LC3B residue S87): 0.288 ppm
CSP (LC3B; LC3B residue S90): 0.272 ppm
CSP (LC3B; LC3B residue S92): 0.283 ppm
CSP (LC3B; LC3B residue T93): 0.304 ppm
CSP (LC3B; LC3B residue V83): 0.350 ppm
CSP (LC3B; LC3B residue V89): 0.263 ppm
CSP (LC3B; LC3B residue V91, estimated): 0.280 ppm
